# PubChem BioAssay AID720705 – Peter MacCallum Cancer Centre – 2013
# Purpose: 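Retest of 50 candidate kinases for effects on angiotensin II–triggered EGFR signalling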 (follow-up of hits)
# Cells: human HMEC-LST-AT1R mammary epithelial cells
# Reagents: single siRNA against human genes, 25 nM per duplex
# Time to read-out: 72 h after transfection
# Treatment: angiotensin II stimulation; dose and duration not given
# Read-out: 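ERK1/2 phosphorylation after angiotensin II, read by AlphaScreen SureFire per well, as signed fold change against averaged mock and GFP siRNA wells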
# Reading the numbers: duplexes agreeing on an effect (of 4): higher = more duplexes of this gene agree on an effect; signed phospho-ERK fold change vs controls: higher = more ERK phosphorylation than controls; negative values are decreases
# Rule for the call: 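a duplex scores when phospho-ERK changes more than 1.5-fold in either direction; a gene is active if at least 2 of 4 duplexes agree in direction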
# Calls: active = high/medium confidence (2-4 of 4 duplexes); inactive = low confidence (0-1 of 4 duplexes)
# The whole screen tested 200 reagents; below is a random part of them. 116 of all reagents (58%) were called active. 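Negative fold changes mean less ERK phosphorylation; hits count in both directions; calls are per gene.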 The numbers tell different reagents against one gene apart.
Gene,reagent,duplexes agreeing on an effect (of 4),signed phospho-ERK fold change vs controls,Outcome
PRKCI,1,1,1.48,inactive
PRKCI,2,1,-2.06,inactive
PRKCI,3,1,-1.91,inactive
PRKCI,4,1,-1.61,inactive
STK16,1,1,-1.41,inactive
STK16,2,1,-1.21,inactive
STK16,3,1,-1.44,inactive
STK16,4,1,-1.79,inactive
BMPR1A,1,1,-1.37,inactive
BMPR1A,2,1,-1.23,inactive
BMPR1A,3,1,-1.49,inactive
BMPR1A,4,1,-1.76,inactive
DBF4,1,3,1.64,active
DBF4,2,3,-2,active
DBF4,3,3,-1.88,active
DBF4,4,3,-1.86,active
PRKG1,1,1,-1.31,inactive
PRKG1,2,1,-1.21,inactive
PRKG1,3,1,-1.74,inactive
PRKG1,4,1,1.34,inactive
CDK5R1,1,1,1.77,inactive
CDK5R1,2,1,1.39,inactive
CDK5R1,3,1,-1.94,inactive
CDK5R1,4,1,-1.35,inactive
FRK,1,2,-0.007,active
FRK,2,2,1.1,active
FRK,3,2,-2.57,active
FRK,4,2,-1.55,active
EGFR,1,3,-3.71,active
EGFR,2,3,-1.46,active
EGFR,3,3,-1.56,active
EGFR,4,3,-1.56,active
DGKH,1,2,-1.59,active
DGKH,2,2,-0.085,active
DGKH,3,2,-1.31,active
DGKH,4,2,-2.68,active
SNRK,1,2,-1.91,active
SNRK,2,2,-0.039,active
SNRK,3,2,-2.17,active
SNRK,4,2,1.28,active
BMX,1,3,1.88,active
BMX,2,3,-1.89,active
BMX,3,3,-2.27,active
BMX,4,3,-2.47,active
MAP3K8,1,1,-1.35,inactive
MAP3K8,2,1,-1.48,inactive
MAP3K8,3,1,1.68,inactive
MAP3K8,4,1,-1.57,inactive
CALM1,1,2,-2.34,active
CALM1,2,2,-0.002,active
CALM1,3,2,-2.46,active
CALM1,4,2,-1.8,active
PRKAA1,1,2,1.32,active
PRKAA1,2,2,-1.06,active
PRKAA1,3,2,-2,active
PRKAA1,4,2,-2.17,active
COASY,1,1,-1.42,inactive
COASY,2,1,0.228,inactive
COASY,3,1,1.38,inactive
COASY,4,1,1.77,inactive
ERBB2,1,4,-2.78,active
ERBB2,2,4,-1.86,active
ERBB2,3,4,-1.5,active
ERBB2,4,4,-1.59,active
FLT3,1,3,-3.17,active
FLT3,2,3,-1.78,active
FLT3,3,3,-1.5,active
FLT3,4,3,-1.22,active
PIK3CA,1,2,-1.52,active
PIK3CA,2,2,-1.77,active
PIK3CA,3,2,2.27,active
PIK3CA,4,2,1.6,active
DYRK1A,1,3,1.55,active
DYRK1A,2,3,-1.64,active
DYRK1A,3,3,-2.2,active
DYRK1A,4,3,-2,active
TRIO,1,2,1.23,active
TRIO,2,2,-1.65,active
TRIO,3,2,0.009,active
TRIO,4,2,-2.22,active

Part of the list above, set out differently:
| Gene | reagent | duplexes agreeing on an effect (of 4) | signed phospho-ERK fold change vs controls | Outcome |
| --- | --- | --- | --- | --- |
| DGKH | 2 | 2 | -0.085 | active |
| DGKH | 3 | 2 | -1.31 | active |
| DGKH | 4 | 2 | -2.68 | active |
| SNRK | 1 | 2 | -1.91 | active |
| SNRK | 2 | 2 | -0.039 | active |
| SNRK | 3 | 2 | -2.17 | active |
| SNRK | 4 | 2 | 1.28 | active |
| BMX | 1 | 3 | 1.88 | active |
| BMX | 2 | 3 | -1.89 | active |
| BMX | 3 | 3 | -2.27 | active |
| BMX | 4 | 3 | -2.47 | active |
| MAP3K8 | 1 | 1 | -1.35 | inactive |
| MAP3K8 | 2 | 1 | -1.48 | inactive |
